Data as given in the supplement of paper PMC12889115.
This is one part of the list. These are raw signals, not scaled to a control.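 First-pass screen: polymyxin B was added at a level that permeabilizes the Salmonella outer membrane while sparing the inner membrane. DMSO wells, with and without polymyxin B, defined maximum growth. Because plates differed from one another, each plate's data were ranked separately and the compounds with the lowest OD600 were carried forward as hits.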

Test system: Salmonella enterica serovar Typhimurium SL1344
Assay: bacterial growth OD600 after 18 h with compound and polymyxin B; higher = more bacterial growth (less inhibition)
Settings: 50 µM, Mueller-Hinton broth

SMILES | bacterial growth OD600 (polymyxin B 1 µg/mL) | bacterial growth OD600 (polymyxin B 0.75 µg/mL)
Cc1oc(-c2ccc(Cl)cc2)nc1CN1CCOCC1 | 0.7 | 
CCO[C@H]1[C@H](NC(=O)c2ccco2)c2ccccc2C12CCN(C(=O)[C@H]1C[C@@H]3C=C[C@H]1C3)CC2 |  | 0.629
CC(C)c1nc(CNc2nncc(-c3cccc(F)c3)n2)cs1 | 0.804 | 
CN(C(=O)c1ccc(Cl)s1)C1CCCN(CCc2ccccc2)C1 (stereo not given) |  | 0.46
Cc1cc(CN(C)C(=O)c2coc(COc3cccc(F)c3F)n2)on1 |  | 0.756
COc1cccc(CC(C2CCN(C(=O)CC3CCCCC3)CC2)N(C)C(=O)c2ccn(C)n2)c1 (stereo not given) |  | 0.737
CCOC(=O)C1(CCCc2ccccc2)CCN(C(=O)CN2C(=O)CSC2=O)CC1 | 0.818 | 
Cc1ccccc1CN1CCC(N2CCC(C(=O)N3CCCC3)CC2)CC1 | 0.908 | 
O=C(NCC1CCCN(Cc2cccc(F)c2F)C1)c1cccs1 (stereo not given) | 0.875 | 
O=C(NC1CCCCCCC1)C1CCC(=O)N(CCc2cccc(F)c2)C1 (stereo not given) | 0.707 | 
C/C=C(\C)C(=O)N1CCC(C2(Cc3cccc(F)c3)NC(=O)N(CCCN(C)C)C2=O)CC1 (stereo not given) |  | 0.85
O=C(NCc1ccccc1F)C1CCCN(C2CCN(C(=O)C3CC3)CC2)C1 (stereo not given) |  | 0.796
COc1ccc(OC)c(Cc2nnc(CCC(=O)NC(C)c3nccs3)o2)c1 (stereo not given) | 0.821 | 
O=C1CCC(CCC(=O)N2CCC(c3ccccc3F)C2)(Cc2ccc3ccccc3c2)N1 (stereo not given) |  | 0.011
CCNC(=O)c1cn(CC(C)C)cc(C(=O)N(C)Cc2ccccc2)c1=O |  | 0.826
OC(c1ccc2c(c1)CN(Cc1cccnc1)CCO2)C(c1ccccc1)c1ccccc1 (stereo not given) |  | 0.748
Cn1c(C2CCC2)nc2cc(C(=O)NCc3nc4c(s3)CCCC4)cc(NC(=O)C3CCCO3)c21 (stereo not given) |  | 0.848
Cc1nc(CN2CCN(C(=O)CCN3Cc4ccccc4OC(c4ccccc4F)C3)CC2)cs1 (stereo not given) |  | 0.777
CSc1cccc(CNC(=O)c2ccc3oc(C(C)C)nc3c2)c1 |  | 0.364
Cc1c(C(C)NCc2ccccc2F)cnn1-c1cccc(F)c1 (stereo not given) | 0.877 | 

A portion taken from the entries so far, for reference:
SMILES | bacterial growth OD600 (polymyxin B 1 µg/mL) | bacterial growth OD600 (polymyxin B 0.75 µg/mL)
C/C=C(\C)C(=O)N1CCC(C2(Cc3cccc(F)c3)NC(=O)N(CCCN(C)C)C2=O)CC1 (stereo not given) |  | 0.85
O=C(NCc1ccccc1F)C1CCCN(C2CCN(C(=O)C3CC3)CC2)C1 (stereo not given) |  | 0.796
